Data taken from the supplement of paper PMC10849652.
This is one part of the list.

By UniProt entry, the sequences of proteins in these tests, tags left out. Where a name states a change or a piece, a line headed by the entry shows the natural chain unless it says otherwise.
UniProt O75298: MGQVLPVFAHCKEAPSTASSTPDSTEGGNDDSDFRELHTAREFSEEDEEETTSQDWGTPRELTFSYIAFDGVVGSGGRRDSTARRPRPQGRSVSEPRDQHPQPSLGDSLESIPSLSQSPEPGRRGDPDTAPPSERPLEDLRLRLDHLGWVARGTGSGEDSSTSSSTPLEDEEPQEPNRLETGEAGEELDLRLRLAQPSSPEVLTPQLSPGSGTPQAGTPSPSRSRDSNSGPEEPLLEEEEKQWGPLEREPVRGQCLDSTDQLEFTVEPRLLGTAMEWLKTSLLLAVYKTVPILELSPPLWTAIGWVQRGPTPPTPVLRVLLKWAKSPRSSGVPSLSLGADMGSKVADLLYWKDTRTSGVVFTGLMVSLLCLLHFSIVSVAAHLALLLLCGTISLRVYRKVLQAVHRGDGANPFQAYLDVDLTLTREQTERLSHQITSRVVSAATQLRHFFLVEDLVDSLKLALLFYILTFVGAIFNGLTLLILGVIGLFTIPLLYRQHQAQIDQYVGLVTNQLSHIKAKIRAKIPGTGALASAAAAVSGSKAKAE
UniProt P51812, whole entry, looked up: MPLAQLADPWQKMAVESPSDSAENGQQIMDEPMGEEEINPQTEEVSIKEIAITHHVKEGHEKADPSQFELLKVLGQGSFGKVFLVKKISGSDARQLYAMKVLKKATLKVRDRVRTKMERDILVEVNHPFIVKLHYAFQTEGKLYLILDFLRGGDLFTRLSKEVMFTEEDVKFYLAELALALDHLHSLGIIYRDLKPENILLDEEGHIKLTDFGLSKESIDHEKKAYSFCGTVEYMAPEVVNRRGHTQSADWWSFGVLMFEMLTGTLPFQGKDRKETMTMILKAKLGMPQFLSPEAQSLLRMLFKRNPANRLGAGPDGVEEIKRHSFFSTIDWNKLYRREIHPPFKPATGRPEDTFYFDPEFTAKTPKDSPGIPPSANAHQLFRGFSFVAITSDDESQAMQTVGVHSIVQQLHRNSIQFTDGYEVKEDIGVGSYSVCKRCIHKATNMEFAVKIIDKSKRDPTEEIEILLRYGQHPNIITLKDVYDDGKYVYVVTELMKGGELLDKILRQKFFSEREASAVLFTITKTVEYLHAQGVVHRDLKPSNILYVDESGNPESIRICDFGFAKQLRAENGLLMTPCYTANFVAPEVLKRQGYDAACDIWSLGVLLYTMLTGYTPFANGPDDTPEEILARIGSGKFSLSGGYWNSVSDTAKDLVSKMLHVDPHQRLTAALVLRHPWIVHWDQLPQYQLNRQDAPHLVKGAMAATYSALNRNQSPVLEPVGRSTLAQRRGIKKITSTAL
UniProt Q96IZ7: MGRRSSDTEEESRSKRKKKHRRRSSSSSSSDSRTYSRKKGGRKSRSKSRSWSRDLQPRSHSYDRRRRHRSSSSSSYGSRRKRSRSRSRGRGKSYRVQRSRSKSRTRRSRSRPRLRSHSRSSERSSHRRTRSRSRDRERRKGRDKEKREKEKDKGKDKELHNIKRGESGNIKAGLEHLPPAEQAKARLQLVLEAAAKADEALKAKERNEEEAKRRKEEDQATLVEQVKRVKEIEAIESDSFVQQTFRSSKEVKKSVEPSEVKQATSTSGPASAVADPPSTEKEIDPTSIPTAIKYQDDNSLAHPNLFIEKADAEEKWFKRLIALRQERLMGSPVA
UniProt Q9BY42: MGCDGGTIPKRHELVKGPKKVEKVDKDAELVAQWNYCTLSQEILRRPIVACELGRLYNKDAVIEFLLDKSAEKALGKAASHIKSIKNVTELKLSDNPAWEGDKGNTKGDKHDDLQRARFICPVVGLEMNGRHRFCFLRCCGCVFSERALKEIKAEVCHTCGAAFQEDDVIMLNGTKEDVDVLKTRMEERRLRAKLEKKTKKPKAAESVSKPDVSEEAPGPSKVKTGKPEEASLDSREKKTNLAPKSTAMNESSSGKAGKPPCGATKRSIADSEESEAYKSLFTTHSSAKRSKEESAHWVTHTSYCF
UniProt P23297: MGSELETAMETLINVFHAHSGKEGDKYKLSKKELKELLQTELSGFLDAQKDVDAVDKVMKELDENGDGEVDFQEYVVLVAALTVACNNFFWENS
UniProt P26447: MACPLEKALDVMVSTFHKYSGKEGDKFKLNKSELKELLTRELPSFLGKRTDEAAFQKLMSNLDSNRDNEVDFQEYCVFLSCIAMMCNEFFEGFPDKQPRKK
UniProt Q6PCB5: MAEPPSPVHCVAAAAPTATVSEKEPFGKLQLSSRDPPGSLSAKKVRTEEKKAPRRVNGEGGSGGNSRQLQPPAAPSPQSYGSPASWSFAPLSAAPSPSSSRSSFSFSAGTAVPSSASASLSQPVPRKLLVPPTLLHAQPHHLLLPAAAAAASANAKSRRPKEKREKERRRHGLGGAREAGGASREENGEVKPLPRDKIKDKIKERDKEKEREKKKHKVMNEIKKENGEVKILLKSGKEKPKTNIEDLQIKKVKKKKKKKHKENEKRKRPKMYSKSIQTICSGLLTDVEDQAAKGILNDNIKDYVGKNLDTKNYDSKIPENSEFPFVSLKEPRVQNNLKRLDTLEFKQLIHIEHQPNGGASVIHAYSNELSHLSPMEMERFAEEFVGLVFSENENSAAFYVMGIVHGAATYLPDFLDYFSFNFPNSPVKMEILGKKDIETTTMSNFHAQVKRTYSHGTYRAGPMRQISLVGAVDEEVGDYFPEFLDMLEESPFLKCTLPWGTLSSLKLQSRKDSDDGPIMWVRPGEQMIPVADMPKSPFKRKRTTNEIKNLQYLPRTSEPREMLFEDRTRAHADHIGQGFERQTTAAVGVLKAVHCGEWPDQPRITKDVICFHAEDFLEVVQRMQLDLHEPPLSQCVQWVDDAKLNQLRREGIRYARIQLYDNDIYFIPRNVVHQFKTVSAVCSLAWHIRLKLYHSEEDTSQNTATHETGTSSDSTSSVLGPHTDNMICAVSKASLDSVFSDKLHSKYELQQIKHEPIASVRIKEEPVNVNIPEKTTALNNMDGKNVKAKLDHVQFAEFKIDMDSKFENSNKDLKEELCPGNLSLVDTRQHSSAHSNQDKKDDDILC

What was measured:
Assay in all cases: log2 fold change, soluble protein after heating vs DMSO (PISA); higher = thermal stabilisation; K562 lysate, 10 uM; active = over 0.2 and 3.5 SD of the protein, either way, in both replicates (recomputed)
[1] = compound: NCC(=O)Nc1ccc(-n2nc(C(F)(F)F)cc2-c2ccc3c(ccc4ccccc43)c2)cc1
In short: (§1)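 Pellets of K562 cells were dounce-homogenised in PBS pH 7.4 with 1 mM MgCl2, and the crude extract was held at 1 mg/mL protein for a 30 min treatment with 10 μM compound. Aliquots were heated for 3 min over 48°C-58°C and pooled before NP-40 was added to 0.5% at 4°C. The supernatant from 21,000xg for 90 min was quantified by TMTpro 16plex LC-MS/MS with channel sums equalised. Values are reported from duplicates as log-two fold change in thermal stability relative to solvent controls.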

[2] = compound: O=C(CCCCCCC(=O)Nc1ccccc1)NO [vorinostat]
In short: as §1

[3] = compound: O=C(O)c1ccc2c(c1)nc(Nc1cccc(Cl)c1)c1ccncc12 [silmitasertib]
In short: as §1

[4] = compound: O=C1NC(=O)C(c2cnc3ccccn23)=C1c1cn2c3c(cc(F)cc13)CN(C(=O)N1CCCCC1)CC2
In short: as §1

[5] = compound: c1cn2cc(-c3ccc4cn[nH]c4c3)nc(Nc3ccc(N4CCOCC4)cc3)c2n1 [entospletinib]
In short: as §1

Measured: log2 fold change

RTN2 (UniProt O75298)
inactive: [1] -0.025 | [2] 0.079 | [3] 0 | [4] -0.05 | [5] 0.032

RPS6KA3 (UniProt P51812)
inactive: [1] -0.017 | [2] -0.384 | [3] 0.362 | [4] 0.181 | [5] -0.052

RPS20 isoform 2 (UniProt P60866)
inactive: [1] -0.019 | [2] 0.022 | [3] 0.021 | [4] -0.034 | [5] -0.005

RSRC1 (UniProt Q96IZ7)
inactive: [1] 0.034 | [2] 0.147 | [3] 0.014 | [4] 0.006 | [5] 0.02

RPL9 (UniProt P32969)
inactive: [1] -0.027 | [2] -0.054 | [3] 0.006 | [4] 0.003 | [5] 0.013

RTF2 (UniProt Q9BY42)
inactive: [1] 0.048 | [2] -0.017 | [3] 0.023 | [4] 0 | [5] 0.007

S100A1 (UniProt P23297)
inactive: [1] -0.024 | [2] 0.164 | [3] -0.052 | [4] -0.071 | [5] -0.086

RPS16 (UniProt P62249)
inactive: [1] -0.031 | [2] 0.074 | [3] 0.056 | [4] 0.005 | [5] -0.005

RPS27 (UniProt P42677)
inactive: [1] 0.032 | [2] 0.058 | [3] -0.119 | [4] 0.077 | [5] -0.004

Random excerpt: 2 entries already listed.
S100A1 (UniProt P23297)
inactive: [1] -0.024 | [2] 0.164 | [3] -0.052 | [4] -0.071 | [5] -0.086

RPS27 (UniProt P42677)
inactive: [1] 0.032 | [2] 0.058 | [3] -0.119 | [4] 0.077 | [5] -0.004

(further entries)

S100A4 (UniProt P26447)
inactive: [1] -0.067 | [2] 0.042 | [3] -0.057 | [4] 0.282 | [5] -0.051

RSBN1L (UniProt Q6PCB5)
inactive: [1] -0.003 | [2] 0.069 | [3] 0.004 | [4] 0.015 | [5] -0.007

RPS3 (UniProt E9PJN9)
inactive: [1] 0.129 | [4] -0.025 | [5] 0.053
